According to the supplement of paper PMC8728848:
The list shows a part of the results.

Columns and labels:
Test in all cases: glycan array binding signal (z-score within array); higher = stronger binding
Conditions in all cases: glycan notation: IUPAC condensed, linker removed
[1] = target: Neu5Ac(a2-3)Gal(b1-3)]Neu5Ac(a2-3)Gal(b1-4)]GlcNAc
How it was run: (§1)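 Glycan array data were curated from 3228 arrays in the Consortium for Functional Glycomics database and kept only where the protein sequence was available. Glycan names were converted to IUPAC-condensed notation, and columns mapping to the same glycan were averaged. The binding signal is a within-array Z-score, averaged across arrays of the same protein sequence at different concentrations or buffers and across linkers. Negative Z-scores can be read as non-binding.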

[2] = target: Neu5Ac(a2-3)Gal(b1-4)Glc
How it was run: as §1

[3] = target: Neu5Ac(a2-3)Gal(b1-4)GlcNAc
How it was run: as §1

[4] = target: Neu5Ac(a2-3)Gal(b1-4)GlcNAc(b1-2)Man
How it was run: as §1

[5] = target: Neu5Ac(a2-3)Gal(b1-4)GlcNAc(b1-2)Man(a1-3)[GlcNAc(b1-4)][Neu5Ac(a2-3)Gal(b1-4)GlcNAc(b1-2)Man(a1-6)]Man(b1-4)GlcNAc(b1-4)GlcNAc
How it was run: as §1

[6] = target: Neu5Ac(a2-3)Gal(b1-4)GlcNAc(b1-2)Man(a1-3)[Neu5Ac(a2-3)Gal(b1-4)GlcNAc(b1-2)Man(a1-6)]Man(b1-4)GlcNAc(b1-4)GlcNAc
How it was run: as §1

[7] = target: Neu5Ac(a2-3)Gal(b1-4)GlcNAc(b1-2)Man(a1-3)[Neu5Ac(a2-3)Gal(b1-4)GlcNAc(b1-2)Man(a1-6)]Man(b1-4)GlcNAc(b1-4)[Fuc(a1-6)]GlcNAc
How it was run: as §1

[8] = target: Neu5Ac(a2-3)Gal(b1-4)GlcNAc(b1-2)Man(a1-3)[Neu5Ac(a2-6)Gal(b1-4)GlcNAc(b1-2)Man(a1-6)]Man(b1-4)GlcNAc(b1-4)GlcNAc
How it was run: as §1

[9] = target: Neu5Ac(a2-3)Gal(b1-4)GlcNAc(b1-2)[Neu5Ac(a2-3)Gal(b1-4)GlcNAc(b1-4)]Man(a1-3)[GlcNAc(b1-4)][Neu5Ac(a2-3)Gal(b1-4)GlcNAc(b1-2)[Neu5Ac(a2-3)Gal(b1-4)GlcNAc(b1-6)]Man(a1-6)]Man(b1-4)GlcNAc(b1-4)GlcNAc
How it was run: as §1

[10] = target: Neu5Ac(a2-3)Gal(b1-4)GlcNAc(b1-2)[Neu5Ac(a2-3)Gal(b1-4)GlcNAc(b1-4)]Man(a1-3)[GlcNAc(b1-4)][Neu5Ac(a2-3)Gal(b1-4)GlcNAc(b1-4)Man(a1-6)]Man(b1-4)GlcNAc(b1-4)GlcNAc
How it was run: as §1

[11] = target: Neu5Ac(a2-3)Gal(b1-4)GlcNAc(b1-2)[Neu5Ac(a2-3)Gal(b1-4)GlcNAc(b1-6)]Man(a1-6)[Neu5Ac(a2-3)Gal(b1-4)GlcNAc(b1-2)Man(a1-3)]Man(b1-4)GlcNAc(b1-4)GlcNAc
How it was run: as §1

[12] = target: Neu5Ac(a2-3)Gal(b1-4)GlcNAc(b1-2)[Neu5Ac(a2-3)Gal(b1-4)GlcNAc(b1-6)]Man(a1-6)[Neu5Ac(a2-3)Gal(b1-4)GlcNAc(b1-2)Man(a1-3)][GlcNAc(b1-4)]Man(b1-4)GlcNAc(b1-4)GlcNAc
How it was run: as §1

[13] = target: Neu5Ac(a2-3)Gal(b1-4)GlcNAc(b1-3)Gal
How it was run: as §1

[14] = target: Neu5Ac(a2-3)Gal(b1-4)GlcNAc(b1-3)Gal(b1-3)GlcNAc
How it was run: as §1

[15] = target: Neu5Ac(a2-3)Gal(b1-4)GlcNAc(b1-3)Gal(b1-4)GlcNAc
How it was run: as §1

[16] = target: Neu5Ac(a2-3)Gal(b1-4)GlcNAc(b1-3)Gal(b1-4)GlcNAc(b1-2)Man(a1-3)[Neu5Ac(a2-3)Gal(b1-4)GlcNAc(b1-3)Gal(b1-4)GlcNAc(b1-2)Man(a1-6)]Man(b1-4)GlcNAc(b1-4)GlcNAc
How it was run: as §1

[17] = target: Neu5Ac(a2-3)Gal(b1-4)GlcNAc(b1-3)Gal(b1-4)GlcNAc(b1-3)Gal(b1-4)GlcNAc
How it was run: as §1

[18] = target: Neu5Ac(a2-3)Gal(b1-4)GlcNAc(b1-3)Gal(b1-4)GlcNAc(b1-3)Gal(b1-4)GlcNAc(b1-2)Man(a1-3)[Neu5Ac(a2-3)Gal(b1-4)GlcNAc(b1-3)Gal(b1-4)GlcNAc(b1-3)Gal(b1-4)GlcNAc(b1-2)Man(a1-6)]GalNAc
How it was run: as §1

[19] = target: Neu5Ac(a2-3)Gal(b1-4)GlcNAc(b1-3)Gal(b1-4)GlcNAc(b1-3)GalNAc
How it was run: as §1

[20] = target: Neu5Ac(a2-3)Gal(b1-4)GlcNAc(b1-3)Gal(b1-4)GlcNAc(b1-3)[Neu5Ac(a2-3)Gal(b1-4)GlcNAc(b1-3)Gal(b1-4)GlcNAc(b1-6)]GalNAc
How it was run: as §1

[21] = target: Neu5Ac(a2-3)Gal(b1-4)GlcNAc(b1-3)Gal(b1-4)GlcNAc(b1-6)[Gal(b1-3)]GalNAc
How it was run: as §1

[22] = target: Neu5Ac(a2-3)Gal(b1-4)GlcNAc(b1-3)Gal(b1-4)[Fuc(a1-3)]GlcNAc
How it was run: as §1

[23] = target: Neu5Ac(a2-3)Gal(b1-4)GlcNAc(b1-3)GalNAc
How it was run: as §1

[24] = target: Neu5Ac(a2-3)Gal(b1-4)GlcNAc(b1-3)[Neu5Ac(a2-3)Gal(b1-4)GlcNAc(b1-6)]GalNAc
How it was run: as §1

[25] = target: Neu5Ac(a2-3)Gal(b1-4)GlcNAc(b1-6)GalNAc
How it was run: as §1

[26] = target: Neu5Ac(a2-3)Gal(b1-4)GlcNAc(b1-6)[Gal(b1-3)]GalNAc
How it was run: as §1

[27] = target: Neu5Ac(a2-3)Gal(b1-4)GlcNAc(b1-6)[Neu5Ac(a2-3)Gal(b1-3)]GalNAc
How it was run: as §1

[28] = target: Neu5Ac(a2-3)Gal(b1-4)GlcNAc6S
How it was run: as §1

[29] = target: Neu5Ac(a2-3)Gal(b1-4)[Fuc(a1-3)]GlcNAc
How it was run: as §1

[30] = target: Neu5Ac(a2-3)Gal(b1-4)[Fuc(a1-3)]GlcNAc(b1-2)Man
How it was run: as §1

[31] = target: Neu5Ac(a2-3)Gal(b1-4)[Fuc(a1-3)]GlcNAc(b1-3)Gal
How it was run: as §1

[32] = target: Neu5Ac(a2-3)Gal(b1-4)[Fuc(a1-3)]GlcNAc(b1-3)Gal(b1-4)GlcNAc
How it was run: as §1

[33] = target: Neu5Ac(a2-3)Gal(b1-4)[Fuc(a1-3)]GlcNAc(b1-3)Gal(b1-4)[Fuc(a1-3)]GlcNAc(b1-3)Gal(b1-4)[Fuc(a1-3)]GlcNAc
How it was run: as §1

[34] = target: Neu5Ac(a2-3)Gal(b1-4)[Fuc(a1-3)]GlcNAc(b1-3)GalNAc
How it was run: as §1

[35] = target: Neu5Ac(a2-3)Gal(b1-4)[Fuc(a1-3)]GlcNAc(b1-6)[Gal(b1-3)]GalNAc
How it was run: as §1

[36] = target: Neu5Ac(a2-3)Gal(b1-4)[Fuc(a1-3)]GlcNAc(b1-6)[Neu5Ac(a2-3)Gal(b1-3)]GalNAc
How it was run: as §1

[37] = target: Neu5Ac(a2-3)Gal(b1-4)[Fuc(a1-3)]GlcNAc6S
How it was run: as §1

[38] = target: Neu5Ac(a2-3)Gal6S(b1-4)GlcNAc
How it was run: as §1

B1: AT1G77380(17) (Arabidopsis thaliana), Q39134 (protein)
chain: MVQNHQTVLAVDMPQTGGSKYLDDDGKNKRTGSVWTASAHIITAVIGSGVLSLAWATAQLGWLAGPVVMLLFSAVTYFTSSLLAACYRSGDPISGKRNYTYMDAVRSNLGGVKVTLCGIVQYLNIFGVAIGYTIASAISMMAIKRSNCFHKSGGKDPCHMNSNPYMIAFGLVQILFSQIPDFDQLWWLSILAAVMSFTYSSAGLALGIAQVVVNGKVKGSLTGISIGAVTETQKIWRTFQALGDIAFAYSYSIILIEIQDTVKSPPSEEKTMKKATLVSVSVTTMFYMLCGCMGYAAFGDLSPGNLLTGFGFYNPYWLLDIANAAIVIHLIGAYQVYCQPLFAFIEKQASIQFPDSEFIAKDIKIPIPGFKPLRLNVFRLIWRTVFVIITTVISMLLPFFNDVVGLLGALGFWPLTVYFPVEMYIAQKKIPRWSTRWVCLQVFSLGCLVVSIAAAAGSIAGVLLDLKSYKPFRSEY
- glycan array binding signal (z-score) [1]: -0.782
- glycan array binding signal (z-score) [2]: -0.582
- glycan array binding signal (z-score) [3]: -0.519
- glycan array binding signal (z-score) [4]: 0.711
- glycan array binding signal (z-score) [5]: -0.679
- glycan array binding signal (z-score) [6]: -0.868
- glycan array binding signal (z-score) [7]: -0.828
- glycan array binding signal (z-score) [8]: -0.842
- glycan array binding signal (z-score) [9]: -0.786
- glycan array binding signal (z-score) [10]: -0.745
- glycan array binding signal (z-score) [11]: -0.538
- glycan array binding signal (z-score) [12]: -0.583
- glycan array binding signal (z-score) [13]: 0.033
- glycan array binding signal (z-score) [14]: -1.04
- glycan array binding signal (z-score) [15]: 0.014
- glycan array binding signal (z-score) [16]: -0.03
- glycan array binding signal (z-score) [17]: -0.676
- glycan array binding signal (z-score) [18]: -0.742
- glycan array binding signal (z-score) [19]: -0.322
- glycan array binding signal (z-score) [20]: -0.709
- glycan array binding signal (z-score) [21]: 0.288
- glycan array binding signal (z-score) [22]: -0.571
- glycan array binding signal (z-score) [23]: 0.512
- glycan array binding signal (z-score) [24]: -0.779
- glycan array binding signal (z-score) [25]: 0.228
- glycan array binding signal (z-score) [26]: 1.54
- glycan array binding signal (z-score) [27]: -0.772
- glycan array binding signal (z-score) [28]: -0.786
- glycan array binding signal (z-score) [29]: -0.134
- glycan array binding signal (z-score) [30]: -0.386
- glycan array binding signal (z-score) [31]: -0.719
- glycan array binding signal (z-score) [32]: -0.19
- glycan array binding signal (z-score) [33]: -0.4
- glycan array binding signal (z-score) [34]: 2.48
- glycan array binding signal (z-score) [35]: -0.175
- glycan array binding signal (z-score) [36]: -0.285
- glycan array binding signal (z-score) [37]: -0.6
- glycan array binding signal (z-score) [38]: 0
